Structures can show the parent of a compound that is named as a salt. This is one part of the list. Repeats are few or missing, and single values can be far off.
tested on: hsa-miR-132-3p; experiment: miR-132-3p level in NGN2-iNs after compound treatment (TMM-normalised, ComBat batch-corrected) (batch-corrected normalised expression (arbitrary units)); higher = higher miR-132-3p expression; settings: 10 µM; 24 h; human iPSC-derived NGN2 neurons (BR43)

Compound | miR-132-3p level in NGN2-iNs
O=C([O-])c1ccccc1O.[Na+] [Sodium salicylate] | -0.512
C=CC[C@@H]1/C=C(\C)C[C@H](C)C[C@H](OC)[C@H]2O[C@@](O)(C(=O)C(=O)N3CCCC[C@H]3C(=O)O[C@H](/C(C)=C/[C@@H]3CC[C@@H](O)[C@H](OC)C3)[C@H](C)[C@@H](O)CC1=O)[C@H](C)C[C@@H]2OC [Tacrolimus (FK506)] | 0.0574
CN(C)Cc1cccc(N=C(c2ccccc2)c2c(O)[nH]c3cc(C(N)=O)ccc23)c1 | 1.97
O=C(N/N=C/c1ccc(O)c(O)c1)c1cc2ccccc2cc1O [Dynasore] | -0.233
CC(C)C[C@H](NC(=O)[C@H](CCc1ccccc1)NC(=O)CN1CCOCC1)C(=O)N[C@@H](Cc1ccccc1)C(=O)N[C@@H](CC(C)C)C(=O)[C@@]1(C)CO1 [Carfilzomib (PR-171)] | -0.658
O=S(=O)(c1ccccc1)c1cnc2c(N3CCNCC3)cccc2c1 | -0.154
NC(=O)N/N=C/c1ccc([N+](=O)[O-])o1 [Nitrofural] | 2.65
O=C(O[C@H]1CN2CCC1CC2)N1CCc2ccccc2[C@@H]1c1ccccc1 [Solifenacin succinate] | -0.141
O=C(c1ccc(F)cc1)N1CCCC(c2nc(-c3ccc(F)cc3)no2)C1 (stereo not drawn) | -0.399
CN1CCCC(n2nc(Cc3ccc(Cl)cc3)c3ccccc3c2=O)CC1 (stereo not drawn) [Azelastine HCl] | 2.51
CC1=CC(=O)NS(=O)(=O)O1 [Acesulfame Potassium] | -1.06
CN(C)CCC[C@@]1(c2ccc(F)cc2)OCc2cc(C#N)ccc21 [Escitalopram Oxalate] | 0.848
O=Nc1c(-c2c(O)[nH]c3cc(Br)ccc23)[nH]c2ccccc12 | 0.494
CN(NC(=O)CC(=O)NN(C)C(=S)c1ccccc1)C(=S)c1ccccc1 [Elesclomol (STA-4783)] | 0.328
CCCC(=O)O[C@]1(C(=O)COC(C)=O)CC[C@H]2[C@@H]3C[C@H](F)C4=CC(=O)C=C[C@]4(C)[C@@]3(F)[C@@H](O)C[C@@]21C [Difluprednate] | -0.232
Nc1ccc(C(=O)NCC(=O)O)cc1 [4-Aminohippuric Acid] | 0.739
COc1ccc(NS(=O)(=O)c2ccc(N)cc2)nn1 [Sulfamethoxypyridazine] | 0.367
CNc1nc(Nc2cnn(C3CCN(C4COC4)CC3F)c2Cl)ncc1C(F)(F)F (stereo not drawn) | 1.38
OC[C@H]1O[C@@H](Oc2ccc(O)cc2)[C@H](O)[C@@H](O)[C@@H]1O [Arbutin] | 0.287
CN(C)CCc1c[nH]c2ccc(Cn3cncn3)cc12 [Rizatriptan Benzoate] | -0.294
CC(C)C[C@@H](C=O)NC(=O)[C@H](CC(C)C)NC(=O)[C@H](CC(C)C)NC(=O)OCc1ccccc1 | -0.808
CC(=O)Oc1cccc2c1C(=O)c1c(OC(C)=O)cc(C(=O)O)cc1C2=O [Diacerein] | 0.488
CCN(CC)Cc1ccc2cc(COC(=O)Nc3ccc(C(=O)NO)cc3)ccc2c1 [Givinostat (ITF2357)] | -1.13
N=C(N)NC(=N)N1CCOCC1 [Moroxydine HCl] | -0.392
CC1(C)S[C@@H]2[C@H](NC(=O)[C@H](NC(=O)N3CCNC3=O)c3ccccc3)C(=O)N2[C@H]1C(=O)O [Azlocillin sodium salt] | 0.101

Reformatted: entries from further up.
CC1=CC(=O)NS(=O)(=O)O1 [Acesulfame Potassium]
  miR-132-3p level in NGN2-iNs: -1.06
N=C(N)NC(=N)N1CCOCC1 [Moroxydine HCl]
  miR-132-3p level in NGN2-iNs: -0.392

Carrying on.

Compound | miR-132-3p level in NGN2-iNs
CC(C)OC(=O)[C@H](C)N[P@](=O)(OC[C@H]1O[C@@H](n2ccc(=O)[nH]c2=O)[C@](C)(F)[C@@H]1O)Oc1ccccc1 [Sofosbuvir (PSI-7977, GS-7977)] | -0.0521
Nc1nc2c(ncn2[C@@H]2O[C@H](CO)[C@@H](O)[C@H]2O)c(=O)[nH]1 [Guanosine] | -0.453
CN(C)/N=N/c1[nH]cnc1C(N)=O [Dacarbazine] | -0.186
Cn1cc(-c2ccc3ncc(Cc4ccc5ncccc5c4)n3n2)cn1 | -0.812
Cc1cc(NC(=O)Nc2ccc(N(C)C)cc2)c2cc(F)cc(F)c2n1 | 0.208
Cc1cn([C@H]2O[C@@H](CO)[C@H](O)[C@H]2F)c(=O)[nH]c1=O [Clevudine] | 0.794
CCOC(=O)[C@H](CCc1ccccc1)N[C@@H](C)C(=O)N1Cc2ccccc2C[C@H]1C(=O)O [Quinapril HCl] | -0.786
NC1(C(=O)N[C@@H](CCO)c2ccc(Cl)cc2)CCN(c2ncnc3[nH]ccc23)CC1 | -0.451
CC(CCc1ccccc1)NCC(O)c1ccc(O)c(C(N)=O)c1 (stereo not drawn) [Labetalol HCl] | -0.59
O=C(O)c1cccnc1Nc1cccc(C(F)(F)F)c1 [Niflumic acid] | -0.48
CC(=O)O[C@]1(C(C)=O)CC[C@H]2[C@@H]3C[C@H](C)C4=CC(=O)C=C[C@]4(C)[C@@]3(F)[C@@H](O)C[C@@]21C [Fluorometholone Acetate] | 0.786
Cc1ccc(-c2csc(NC(=O)c3ccccc3)n2)c(C)c1 | 0.356
Cc1cc(C(C)(C)C)c(O)c(C)c1CC1=NCCN1 [Oxymetazoline HCl] | 1.12
O=c1cc(N2CCOCC2)oc2c(-c3cccc4c3sc3ccccc34)cccc12 | -0.654
CC(C)(C(=O)O)c1ccc(C(O)CCCN2CCC(C(O)(c3ccccc3)c3ccccc3)CC2)cc1 (stereo not drawn) [Fexofenadine HCl] | 0.224
COc1ccc([C@@H]2CC(=O)c3c(O)cc(O[C@@H]4O[C@H](CO[C@@H]5O[C@@H](C)[C@H](O)[C@@H](O)[C@H]5O)[C@@H](O)[C@H](O)[C@H]4O)cc3O2)cc1O [Hesperidin] | 0.934
COC(c1ccccc1)(c1ccccc1)[C@H](Oc1nc(C)cc(C)n1)C(=O)O [Ambrisentan] | 1.2
COC(=O)C1=C(C)NC(C)=C(C(=O)OCCN2CCN(C(c3ccccc3)c3ccccc3)CC2)C1c1cccc([N+](=O)[O-])c1 (stereo not drawn) [Manidipine 2HCl] | 0.674
CC(C)N(C[C@H]1O[C@@H](n2cnc3c(N)ncnc32)[C@H](O)[C@@H]1O)[C@H]1C[C@@H](CCc2nc3cc(C(C)(C)C)ccc3[nH]2)C1 [Pinometostat (EPZ5676)] | 0.0812
C[N+]1(C)[C@@H]2CC[C@H]1C[C@@H](OC(=O)C(O)c1ccccc1)C2 (stereo partly drawn) [Homatropine Methylbromide] | -0.362
C[N+]1(C)[C@@H]2C[C@@H](OC(=O)C(O)(c3cccs3)c3cccs3)C[C@H]1[C@@H]1O[C@@H]12 [Tiotropium Bromide hydrate] | -0.779
CC(C(=O)O)c1ccc2c(c1)Cc1cccnc1O2 (stereo not drawn) [Pranoprofen] | -0.49
CC(=O)Nc1ccccc1 [Acetanilide] | 0.444
Cc1cc(C(N)=O)ccc1-n1c(CCC(=O)O)ccc1-c1ccc(-n2ccnc2)cc1 | -0.935
C[C@]12CCC(=O)C=C1CC[C@@H]1[C@@H]2[C@@H](O)C[C@@]2(C)[C@H]1CC[C@]2(O)C(=O)CO [Hydrocortisone] | -4.71

Compound | miR-132-3p level in NGN2-iNs
CN(N=O)C(=O)NC1C(O)OC(CO)C(O)C1O (stereo not drawn) [Streptozotocin (STZ)] | -2.85
Oc1ncnc2[nH]ncc12 [Allopurinol] | 0.719
O=C(CCc1ccc(O)cc1)c1c(O)cc(O)cc1O[C@@H]1O[C@H](CO)[C@@H](O)[C@H](O)[C@H]1O [Phlorizin] | -0.311
Cn1cnc(-c2cc3nccc(Oc4ccc(NC(=S)NC(=O)Cc5ccccc5)cc4F)c3s2)c1 [MGCD-265 analog] | 0.69
CO/N=C(\C(=O)N[C@@H]1C(=O)N2C(C(=O)OCOC(=O)C(C)(C)C)=C(/C=C\c3scnc3C)CS[C@H]12)c1csc(N)n1 [Cefditoren Pivoxil] | -1.03
O=C(Nc1ccccc1)c1cc([N+](=O)[O-])ccc1Cl | 1.01
C=C1C(=O)O[C@@H]2/C=C(\C)CC/C=C(\C)CC[C@@H]12 [Costunolide] | 0.19
CCCc1cc(=O)[nH]c(=S)[nH]1 [Propylthiouracil] | -1.22
Cc1ccc(Nc2c(F)cccc2Cl)c(CC(=O)O)c1 [Lumiracoxib] | -0.267
O=c1cc(-c2cccc3c2Sc2ccccc2S3)oc(N2CCOCC2)c1 | -0.0751
Oc1ccc([C@H]2COc3cc(O)ccc3C2)cc1 [Equol] | 0.984
N=C(N)c1ccc(OCCCCCOc2ccc(C(=N)N)cc2)cc1 [Pentamidine isethionate] | 0.289
N#Cc1c(O)c2c(-c3ccc(-c4ccccc4O)cc3)csc2[nH]c1=O | 0.47
CC1(C)S[C@@H]2[C@H](NC(=O)[C@H](N)c3ccc(O)cc3)C(=O)N2[C@H]1C(=O)O [Amoxicillin] | -0.638
CC1(C)S[C@@H]2[C@H](NC(=O)[C@H](N)c3ccc(O)cc3)C(=O)N2[C@H]1C(=O)O [Amoxicillin Sodium] | 2.14
Cc1cc(C(=O)NOCCO)c(Nc2ccc(I)cc2F)n(C)c1=O | -1
Nc1nc(Cl)nc2c1ncn2[C@H]1C[C@H](O)[C@@H](CO)O1 [Cladribine] | 0.711
O=C(C=Cc1ccccc1)NC(NC(=S)Nc1ccc(Cl)cc1)C(Cl)(Cl)Cl (stereo not drawn) | -0.265
O=C(O)C(O)Cc1ccc(O)c(O)c1 (stereo not drawn) [Sodium Danshensu] | -0.494
Oc1ccc(OC2CCCCO2)cc1 (stereo not drawn) [Deoxyarbutin] | 1.5
Nc1cccc2c1C(=O)N(C1CCC(=O)NC1=O)C2=O (stereo not drawn) [Pomalidomide] | -0.318
O=C(/C=C/c1ccccc1)NC(NC(=S)Nc1cccc2cccnc12)C(Cl)(Cl)Cl (stereo not drawn) [Salubrinal] | -1.06
CC(=O)O[C@@]12CO[C@@H]1C[C@H](O)[C@@]1(C)C(=O)[C@H](O)C3=C(C)[C@@H](OC(=O)[C@H](O)[C@@H](NC(=O)OC(C)(C)C)c4ccccc4)C[C@@](O)([C@@H](OC(=O)c4ccccc4)[C@H]21)C3(C)C [Docetaxel] | 2.13

Reformatted: results already given.
O=C(Nc1ccccc1)c1cc([N+](=O)[O-])ccc1Cl
  miR-132-3p level in NGN2-iNs: 1.01
O=c1cc(-c2cccc3c2Sc2ccccc2S3)oc(N2CCOCC2)c1
  miR-132-3p level in NGN2-iNs: -0.0751
Oc1ccc(OC2CCCCO2)cc1 (stereo not drawn) [Deoxyarbutin]
  miR-132-3p level in NGN2-iNs: 1.5
O=C(/C=C/c1ccccc1)NC(NC(=S)Nc1cccc2cccnc12)C(Cl)(Cl)Cl (stereo not drawn) [Salubrinal]
  miR-132-3p level in NGN2-iNs: -1.06

From the supplement of paper PMC10663445
